From the supplement of paper PMC8728848
The other results are listed elsewhere or left out.

Key:
Assay in all cases: glycan array binding signal (z-score within array); higher = stronger binding
Settings in all cases: glycan notation: IUPAC condensed, linker removed
[1] = target: Gal(b1-3)[Fuc(a1-4)]GlcNAc(b1-3)Gal(b1-4)GlcNAc
Outline: (§1)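 From the Consortium for Functional Glycomics database, 3228 arrays were curated, keeping only those whose protein sequence was available. Binding is given as a within-array Z-score averaged across arrays sharing a protein sequence and across linkers. Negative Z-scores can be read as non-binding.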

[2] = target: Gal(b1-3)[Fuc(a1-4)]GlcNAc(b1-3)Gal(b1-4)[Fuc(a1-3)]GlcNAc
Outline: as §1

[3] = target: Gal(b1-3)[GlcNAc(b1-6)]GalNAc
Outline: as §1

[4] = target: Gal(b1-3)[Neu5Ac(a2-6)]GalNAc
Outline: as §1

[5] = target: Gal(b1-3)[Neu5Ac(a2-6)]GlcNAc(b1-6)Gal(b1-4)Glc
Outline: as §1

[6] = target: Gal(b1-3)[Neu5Ac(b2-6)]GalNAc
Outline: as §1

[7] = target: Gal(b1-4)Gal
Outline: as §1

[8] = target: Gal(b1-4)GalNAc(a1-3)[Fuc(a1-2)]Gal(b1-4)GlcNAc
Outline: as §1

[9] = target: Gal(b1-4)GalNAc(b1-3)[Fuc(a1-2)]Gal(b1-4)GlcNAc
Outline: as §1

[10] = target: Gal(b1-4)Glc
Outline: as §1

[11] = target: Gal(b1-4)Glc6S
Outline: as §1

[12] = target: Gal(b1-4)GlcNAc
Outline: as §1

[13] = target: Gal(b1-4)GlcNAc(a1-6)Gal(b1-4)GlcNAc
Outline: as §1

[14] = target: Gal(b1-4)GlcNAc(b1-2)Man
Outline: as §1

[15] = target: Gal(b1-4)GlcNAc(b1-2)Man(a1-3)Man(b1-4)GlcNAc(b1-4)GlcNAc
Outline: as §1

[16] = target: Gal(b1-4)GlcNAc(b1-2)Man(a1-3)[Gal(b1-4)GlcNAc(b1-2)Man(a1-6)]Man(b1-4)GlcNAc(b1-4)GlcNAc
Outline: as §1

[17] = target: Gal(b1-4)GlcNAc(b1-2)Man(a1-3)[Gal(b1-4)GlcNAc(b1-2)Man(a1-6)]Man(b1-4)GlcNAc(b1-4)[Fuc(a1-6)]GlcNAc
Outline: as §1

[18] = target: Gal(b1-4)GlcNAc(b1-2)Man(a1-3)[Gal(b1-4)GlcNAc(b1-2)][GlcNAc(b1-4)]Man(b1-4)GlcNAc(b1-4)GlcNAc
Outline: as §1

[19] = target: Gal(b1-4)GlcNAc(b1-2)Man(a1-3)[GlcNAc(b1-2)Man(a1-6)]Man(b1-4)GlcNAc(b1-4)GlcNAc
Outline: as §1

[20] = target: Gal(b1-4)GlcNAc(b1-2)Man(a1-3)[Man(a1-6)]Man(b1-4)GlcNAc(b1-4)GlcNAc
Outline: as §1

[21] = target: Gal(b1-4)GlcNAc(b1-2)Man(a1-6)Man(b1-4)GlcNAc(b1-4)GlcNAc
Outline: as §1

[22] = target: Gal(b1-4)GlcNAc(b1-2)Man(a1-6)[GlcNAc(b1-2)Man(a1-3)]Man(b1-4)GlcNAc(b1-4)GlcNAc
Outline: as §1

[23] = target: Gal(b1-4)GlcNAc(b1-2)Man(a1-6)[Man(a1-3)]Man(b1-4)GlcNAc(b1-4)GlcNAc
Outline: as §1

[24] = target: Gal(b1-4)GlcNAc(b1-2)[Gal(b1-4)GlcNAc(b1-4)]Man(a1-3)[Gal(b1-4)GlcNAc(b1-2)Man(a1-6)]Man(b1-4)GlcNAc(b1-4)GlcNAc
Outline: as §1

[25] = target: Gal(b1-4)GlcNAc(b1-2)[Gal(b1-4)GlcNAc(b1-4)]Man(a1-3)[Gal(b1-4)GlcNAc(b1-2)[Gal(b1-4)GlcNAc(b1-6)]Man(a1-6)]Man(b1-4)GlcNAc(b1-4)GlcNAc
Outline: as §1

[26] = target: Gal(b1-4)GlcNAc(b1-2)[Gal(b1-4)GlcNAc(b1-4)]Man(a1-3)[GlcNAc(b1-4)][Gal(b1-4)GlcNAc(b1-2)Man(a1-6)]Man(b1-4)GlcNAc(b1-4)GlcNAc
Outline: as §1

[27] = target: Gal(b1-4)GlcNAc(b1-2)[Gal(b1-4)GlcNAc(b1-4)]Man(a1-3)[GlcNAc(b1-4)][Gal(b1-4)GlcNAc(b1-2)[Gal(b1-4)GlcNAc(b1-6)]Man(a1-6)]Man(b1-4)GlcNAc(b1-4)GlcNAc
Outline: as §1

[28] = target: Gal(b1-4)GlcNAc(b1-2)[Gal(b1-4)GlcNAc(b1-6)]Man(a1-6)[Gal(b1-4)GlcNAc(b1-2)Man(a1-3)]Man(b1-4)GlcNAc(b1-4)GlcNAc
Outline: as §1

[29] = target: Gal(b1-4)GlcNAc(b1-2)[Gal(b1-4)GlcNAc(b1-6)]Man(a1-6)[GlcNAc(b1-4)][Gal(b1-4)GlcNAc(b1-2)Man(a1-3)]Man(b1-4)GlcNAc(b1-4)GlcNAc
Outline: as §1

[30] = target: Gal(b1-4)GlcNAc(b1-3)Gal(b1-3)GlcNAc
Outline: as §1

[31] = target: Gal(b1-4)GlcNAc(b1-3)Gal(b1-4)Glc
Outline: as §1

[32] = target: Gal(b1-4)GlcNAc(b1-3)Gal(b1-4)GlcNAc
Outline: as §1

[33] = target: Gal(b1-4)GlcNAc(b1-3)Gal(b1-4)GlcNAc(b1-3)Gal(b1-4)GlcNAc
Outline: as §1

[34] = target: Gal(b1-4)GlcNAc(b1-3)Gal(b1-4)[Fuc(a1-3)GlcNAc(b1-6)]Gal(b1-4)Glc
Outline: as §1

[35] = target: Gal(b1-4)GlcNAc(b1-3)Gal(b1-4)[Fuc(a1-3)]GlcNAc(b1-3)Gal(b1-4)[Fuc(a1-3)]GlcNAc
Outline: as §1

[36] = target: Gal(b1-4)GlcNAc(b1-3)GalNAc
Outline: as §1

[37] = target: Gal(b1-4)GlcNAc(b1-3)[Gal(b1-4)GlcNAc(b1-6)]Gal(b1-4)GlcNAc
Outline: as §1

[38] = target: Gal(b1-4)GlcNAc(b1-3)[Gal(b1-4)GlcNAc(b1-6)]GalNAc
Outline: as §1

[39] = target: Gal(b1-4)GlcNAc(b1-3)[GlcNAc(b1-6)]Gal(b1-4)GlcNAc
Outline: as §1

[40] = target: Gal(b1-4)GlcNAc(b1-6)Gal(b1-4)GlcNAc
Outline: as §1

[41] = target: Gal(b1-4)GlcNAc(b1-6)GalNAc
Outline: as §1

[42] = target: Gal(b1-4)GlcNAc(b1-6)[Gal(b1-3)]GalNAc
Outline: as §1

[43] = target: Gal(b1-6)Gal
Outline: as §1

[44] = target: Gal3S(b1-3)GalNAc
Outline: as §1

[45] = target: Gal3S(b1-3)GlcNAc
Outline: as §1

B1: Flo11 (Saccharomyces cerevisiae), P08640 (protein)
chain: MQRPFLLAYLVLSLLFNSALGFPTALVPRGSSEGTSCNSIVNGCPNLDFNWHMDQQNIMQYTLDVTSVSWVQDNTYQITIHVKGKENIDLKYLWSLKIIGVTGPKGTVQLYGYNENTYLIDNPTDFTATFEVYATQDVNSCQVWMPNFQIQFEYLQGSAAQYASSWQWGTTSFDLSTGCNNYDNQGHSQTDFPGFYWNIDCDNNCGGTKSSTTTSSTSESSTTTSSTSESSTTTSSTSESSTTTSSTSESSTSSSTTAPATPTTTSCTKEKPTPPTTTSCTKEKPTPPHHDTTPCTKKKTTTSKTCTKKTTTPVPTPSSSTTESSSAPVPTPSSSTTESSSAPVTSSTTESSSAPVPTPSSSTTESSSAPVTSSTTESSSAPVTSSTTESSSAPVPTPSSSTTESSSAPVTSSTTESSSAPVTSSTTESSSAPVTSSTTESSSAPVTSSTTESSSAPVPTPSSSTTESSSAPVTSSTTESSSAPVPTPSSSTTESSSAPVTSSTTESSSAPVPTPSSSTTESSSAPAPTPSSSTTESSSAPVTSSTTESSSAPVPTPSSSTTESSSTPVTSSTTESSSAPVPTPSSSTTESSSAPVPTPSSSTTESSSAPAPTPSSSTTESSSAPVTSSTTESSSAPVPTPSSSTTESSSAPVPTPSSSTTESSSAPVPTPSSSTTESSSAPVTSSTTESSSAPVTSSTTESSSAPVPTPSSSTTESSSAPVPTPSSSTTESSSAPVPTPSSSTTESSSAPVTSSTTESSSAPVPTPSSSTTESSSAPVPTPSSSTTESSSAPVPTPSSSTTESSVAPVPTPSSSSNITSSAPSSTPFSSSTESSSVPVPTPSSSTTESSSAPVSSSTTESSVAPVPTPSSSSNITSSAPSSIPFSSTTESFSTGTTVTPSSSKYPGSQTETSVSSTTETTIVPTKTTTSVTTPSTTTITTTVCSTGTNSAGETTSGCSPKTVTTTVPTTTTTSVTTSSTTTITTTVCSTGTNSAGETTSGCSPKTITTTVPCSTSPSETASESTTTSPTTPVTTVVSTTVVTTEYSTSTKPGGEITTTFVTKNIPTTYLTTIAPTPSVTTVTNFTPTTITTTVCSTGTNSAGETTSGCSPKTVTTTVPCSTGTGEYTTEATTLVTTAVTTTVVTTESSTGTNSAGKTTTGYTTKSVPTTYVTTLAPSAPVTPATNAVPTTITTTECSAATNAAGETTSVCSAKTIVSSASAGENTAPSATTPVTTAIPTTVITTESSVGTNSAGETTTGYTTKSIPTTYITTLIPGSNGAKNYETVATATNPISIKTTSQLATTASASSVAPVVTSPSLTGPLQSASGSAVATYSVPSISSTYQGAANIKVLGNFMWLLLALPVVF
Q: What does the source list for B1?
A: glycan array binding signal (z-score) [1]: -0.794; glycan array binding signal (z-score) [2]: -0.846; glycan array binding signal (z-score) [3]: -1.34; glycan array binding signal (z-score) [4]: -0.164; glycan array binding signal (z-score) [5]: 0.844; glycan array binding signal (z-score) [6]: -1.45; glycan array binding signal (z-score) [7]: -0.601; glycan array binding signal (z-score) [8]: -0.429; glycan array binding signal (z-score) [9]: 0.058; glycan array binding signal (z-score) [10]: 0.03; glycan array binding signal (z-score) [11]: 0.516; glycan array binding signal (z-score) [12]: -0.125; glycan array binding signal (z-score) [13]: -1; glycan array binding signal (z-score) [14]: 0.447; glycan array binding signal (z-score) [15]: -0.143; glycan array binding signal (z-score) [16]: -0.273; glycan array binding signal (z-score) [17]: 0.022; glycan array binding signal (z-score) [18]: -1.67; glycan array binding signal (z-score) [19]: -0.132; glycan array binding signal (z-score) [20]: -0.929; glycan array binding signal (z-score) [21]: 0.45; glycan array binding signal (z-score) [22]: 0.131; glycan array binding signal (z-score) [23]: 0.152; glycan array binding signal (z-score) [24]: 0.506; glycan array binding signal (z-score) [25]: -0.404; glycan array binding signal (z-score) [26]: -0.919; glycan array binding signal (z-score) [27]: 1.02; glycan array binding signal (z-score) [28]: -0.682; glycan array binding signal (z-score) [29]: 0.433; glycan array binding signal (z-score) [30]: -0.09; glycan array binding signal (z-score) [31]: -0.307; glycan array binding signal (z-score) [32]: -0.667; glycan array binding signal (z-score) [33]: -0.265; glycan array binding signal (z-score) [34]: -1.05; glycan array binding signal (z-score) [35]: 0.018; glycan array binding signal (z-score) [36]: 0.011; glycan array binding signal (z-score) [37]: -0.658; glycan array binding signal (z-score) [38]: -0.448; glycan array binding signal (z-score) [39]: -0.912; glycan array binding signal (z-score) [40]: -0.383; glycan array binding signal (z-score) [41]: -0.773; glycan array binding signal (z-score) [42]: -0.578; glycan array binding signal (z-score) [43]: -0.852; glycan array binding signal (z-score) [44]: -0.976; glycan array binding signal (z-score) [45]: 0.506
